Where a name gives a salt, the structure may show the parent alone. The list shows a part of the results. This data set is noisy: repeats of one test often differ as much as different tests do.

The assay deals with Brugia pahangi adult female. Put plainly: motility inhibition on day 3 relative to DMSO vehicle; higher = more active. The note with it: 10 µM; 3 days.
For the compound `CCC1(C)OC(=O)N(C)C1=O` (centres undefined) [paramethadione], the “motility inhibition on day 3” value turned out to be 7.17%.
As for `N[C@@H](Cc1c[nH]c2ccccc12)C(=O)O` [tryptophan], the “motility inhibition on day 3” value was under 0%.
On to `O=C(OOC(=O)c1ccccc1)c1ccccc1` [benzoyl peroxide], for which the “motility inhibition on day 3” value turned out to be 30.8%.
In the case of `Cc1c(NC(=O)c2cccnc2)c(=O)n(-c2ccccc2)n1C` [nifenazone], the “motility inhibition on day 3” value was 49.6%.
On to `CS(=O)(=O)OCCCCOS(C)(=O)=O` [busulfan], for which the “motility inhibition on day 3” value was found to be 23.7%.
In the case of `CC[C@@H]1C(=O)OC[C@@H]1Cc1cncn1C` [(+)-Pilocarpine hydrochloride], the “motility inhibition on day 3” value is under 0%.
`CN1C(=O)CC[C@H]1c1cccnc1` [cotinine]: the “motility inhibition on day 3” value is under 0%.
In the case of `CC(=O)N[C@H]1[C@H]([C@H](O)[C@H](O)CO)OC(O)(C(=O)O)C[C@@H]1O` (mixture of isomers) [n-acetylneuramic acid] it was 12.1%; in that of `O=C(CCCN1CCN(c2ccccn2)CC1)c1ccc(F)cc1` [azaperone], 5.34%; in that of `C[C@H](CCC(=O)O)[C@H]1CC[C@H]2[C@@H]3[C@@H](O)C[C@@H]4C[C@H](O)CC[C@]4(C)[C@H]3CC[C@]12C` [ursodiol], 17.6%.
`C[C@@H](O)[C@@H]1NC(=O)[C@H](CCCCN)NC(=O)[C@@H](Cc2c[nH]c3ccccc23)NC(=O)[C@H](Cc2ccccc2)NC(=O)[C@@H](NC(=O)[C@H](N)Cc2ccccc2)CSSC[C@@H](C(=O)N[C@H](CO)[C@@H](C)O)NC1=O` [Octreotide]: the “motility inhibition on day 3” value stood at 2.15%.
Consider `CC1CC(OC(=O)c2ccccc2O)CC(C)(C)C1` (centres undefined) [homosalate], for which the “motility inhibition on day 3” value is 1.62%.
In the case of `Nc1c2ccccc2nc2ccccc12` [aminacrine] it was 0.654%.
`CN1CCC(=C2c3ccccc3Sc3ccccc32)CC1` [pimethixene maleate]: the “motility inhibition on day 3” value came out at 5.83%.
In the case of `C[C@@H]1C[C@H]2[C@@H]3CCC4=CC(=O)C=C[C@]4(C)[C@@]3(F)[C@@H](O)C[C@]2(C)[C@@]1(O)C(=O)COP(=O)(O)O` [dexamethasone sodium phosphate] it was 31.1%; in that of `CCN(CC)CCNC(C(=O)OCCC(C)C)c1ccccc1` (centres undefined) [camylofine dihydrochloride], 4.34%; in that of `Cc1c(-c2cnccn2)ssc1=S` [oltipraz], 0.764%.
As for `C(=C\c1ccccc1)/CN1CCN(C(c2ccccc2)c2ccccc2)CC1` [cinnarazine], the “motility inhibition on day 3” value is 18.4%.
For `O=C(O)c1ccccc1C(=O)Nc1ccc(S(=O)(=O)Nc2nccs2)cc1` [phthalylsulfathiazole], the “motility inhibition on day 3” value was 9.55%.
On to `C[N+](C)(C)CC(=O)O` [betaine hydrochloride], for which the “motility inhibition on day 3” value amounted to 34.6%.
On to `OCCN(CCO)c1nc(N2CCCCC2)c2nc(N(CCO)CCO)nc(N3CCCCC3)c2n1` [Dipyridamole], for which the “motility inhibition on day 3” value is under 0%.
Turning to `CN1CCN(C(c2ccccc2)c2ccccc2)CC1` [cyclizine], the “motility inhibition on day 3” value stood at 23.5%.
For `C[C@]12CC[C@@H]3c4ccc(OC(=O)c5ccccc5)cc4CC[C@H]3[C@@H]1CC[C@@H]2O` [estradiol benzoate], the “motility inhibition on day 3” value was 28.4%.
Consider `CN(C)CCCN1c2ccccc2Sc2ccc(C(F)(F)F)cc21` [triflupromazine hydrochloride], for which the “motility inhibition on day 3” value is 7.04%.
Regarding `CCN(CC)CCOC(=O)C1(C2CCCCC2)CCCCC1` [dicyclomine hydrochloride], the “motility inhibition on day 3” value was determined as 20.2%.
Consider `CCCCOCCOCCOCc1cc2c(cc1CCC)OCO2` [piperonyl butoxide], for which the “motility inhibition on day 3” value is 16.4%.
With `CC(N/C(=N\C#N)Nc1ccncc1)C(C)(C)C` (centres undefined) [Pinacidil], the “motility inhibition on day 3” value was under 0%.
Consider `CC1(C)OC(=O)C(OCC2CC2)=C1c1ccc(S(C)(=O)=O)cc1` [firocoxib], for which the “motility inhibition on day 3” value was under 0%.
Consider `CCCCC(O)c1ccccc1` (centres undefined) [fenipentol], for which the “motility inhibition on day 3” value is under 0%.
Consider `CC(=O)Oc1ccccc1C(=O)Nc1ncc([N+](=O)[O-])s1` [nitazoxanide], for which the “motility inhibition on day 3” value is 84.8%.
Regarding `Oc1cc(O)c2c(c1)O[C@H](c1ccc(O)c(O)c1)[C@@H](O)C2` [cianidanol], the “motility inhibition on day 3” value was 12.5%.
Take `CO[C@H]1C[C@H](O[C@H]2[C@H](C)O[C@@H](O[C@@H]3/C(C)=C/C[C@@H]4C[C@@H](C[C@]5(C=C[C@H](C)[C@@H](C6CCCCC6)O5)O4)OC(=O)[C@@H]4C=C(C)[C@@H](O)[C@H]5OC/C(=C\C=C\[C@@H]3C)[C@]54O)C[C@@H]2OC)O[C@@H](C)[C@@H]1O` [doramectin]: the “motility inhibition on day 3” value amounted to 44.9%.
For `O=C1c2c(O)cccc2Cc2cccc(O)c21` [anthralin] the value was under 0%; for `CC[N+](C)(CC)CCOC(=O)C(O)(c1ccccc1)C1CCCCC1` (centres undefined) [oxyphenonium bromide], 7%.
With `O=C(O)c1cn(-c2ccc(F)cc2)c2cc(N3CCNCC3)c(F)cc2c1=O` [sarafloxacin hydrochloride], the “motility inhibition on day 3” value is under 0%.
Consider `C[C@@H]1C[C@H]2[C@@H]3C[C@H](F)C4=CC(=O)C=C[C@]4(C)[C@@]3(F)[C@@H](O)C[C@]2(C)[C@@]1(O)C(=O)CO` [flumethasone], for which the “motility inhibition on day 3” value was under 0%.
On to `O=C(O)Cc1ccc(-c2ccccc2)cc1` [felbinac], for which the “motility inhibition on day 3” value is 0.924%.
Turning to `CC(=O)OCC(=O)[C@@]1(O)[C@@H](C)C[C@H]2[C@@H]3CCC4=CC(=O)C=C[C@]4(C)[C@@]3(F)[C@@H](O)C[C@@]21C` [betamethasone acetate], the “motility inhibition on day 3” value amounted to 0.848%.
Consider `Oc1ccc2ccccc2c1` [beta-naphthol], for which the “motility inhibition on day 3” value worked out at 69.2%.
Regarding `N=C(NCCCCCCNC(=N)NC(=N)Nc1ccc(Cl)cc1)NC(=N)Nc1ccc(Cl)cc1` [chlorhexidine], the “motility inhibition on day 3” value is 75.1%.
In the case of `NCc1ccccc1CC(=O)N[C@@H]1C(=O)N2C(C(=O)O)=C(CSc3nnnn3CC(=O)O)CS[C@H]12` [ceforanide], the “motility inhibition on day 3” value turned out to be 1.7%.
For `COc1c2occc2cc2ccc(=O)oc12` [methoxsalen] the value was 26.5%; for `CC(C)CC(N)=O` [isovaleramide], 7.72%.
Take `CN1CCN(C2=Nc3ccccc3Oc3ccc(Cl)cc32)CC1` [Loxapine succinate]: the “motility inhibition on day 3” value was found to be 8.58%.
Turning to `Clc1ccc(CCC(Cn2ccnc2)Sc2c(Cl)cccc2Cl)cc1` (centres undefined) [butoconazole], the “motility inhibition on day 3” value is under 0%.
Turning to `N#Cc1ccc(C(c2ccc(C#N)cc2)n2cncn2)cc1` [letrozole], the “motility inhibition on day 3” value amounted to 4.66%.
For `C[N+]1(C)CCC(OC(=O)C(O)(c2ccccc2)C2CCCC2)C1` (centres undefined) [glycopyrrolate] the value was 2.28%; for `NNCCc1ccccc1` [phenelzine sulfate], 20.4%; for `Cc1nccnc1N1CCCCC1` [modaline sulfate], 9.1%.
With `C=C1CC[C@H](O)C/C1=C/C=C1\CCC[C@]2(C)[C@@H]([C@H](C)CCCC(C)C)CC[C@@H]12` [cholecalciferol], the “motility inhibition on day 3” value came to 2.89%.
For `CC(Cc1cccc(C(F)(F)F)c1)NCCOC(=O)c1ccccc1` (centres undefined) [benfluorex hydrochloride] the value was under 0%; for `CC(=O)S[C@@H]1CC2=CC(=O)CC[C@]2(C)[C@H]2CC[C@@]3(C)[C@@H](CC[C@@]34CCC(=O)O4)[C@H]12` [spironolactone], under 0%; for `CCCc1cc(C(N)=S)ccn1` [protionamide], under 0%.
In the case of `CO[C@H]1/C=C/O[C@@]2(C)Oc3c(C)c(O)c4c(O)c(c(/C=N/N5CCN(C6CCCC6)CC5)c(O)c4c3C2=O)NC(=O)/C(C)=C\C=C\[C@H](C)[C@H](O)[C@@H](C)[C@@H](O)[C@@H](C)[C@H](OC(C)=O)[C@@H]1C` it was 1.44%; in that of `N=C(N)NC(=N)NCCc1ccccc1` [phenformin hydrochloride], 4.92%; in that of `CN1CCC(=C2c3ccccc3C=Cc3ccccc32)CC1` [Cyproheptadine hydrochloride], 7.54%.
As to `CN1CCN(CC/C=C2/c3ccccc3Sc3ccc(S(=O)(=O)N(C)C)cc32)CC1` [thiothixene], the “motility inhibition on day 3” value was under 0%.
In the case of `C[C@H]1O[C@H](O[C@H]2[C@H](O)[C@@H](O)[C@@H](O[C@H]3[C@H](O)[C@@H](O)C(O)O[C@@H]3CO)O[C@@H]2CO)[C@H](O)[C@@H](O)[C@@H]1N[C@H]1C=C(CO)[C@@H](O)[C@H](O)[C@H]1O` (some centres undefined) [acarbose] it was 1.33%; in that of `CC(C)(CO)[C@@H](O)C(=O)NCCC(=O)NCCSSCCNC(=O)CCNC(=O)[C@H](O)C(C)(C)CO` [pantethine], 0.236%.
In the case of `C[C@@H](O)CN(CCN(C[C@@H](C)O)C[C@@H](C)O)C[C@@H](C)O` [editol] it was 3.03%; in that of `Cc1cn[nH]c1` [fomepizole hydrochloride], 1.97%; in that of `OCCN1CCN(CC/C=C2/c3ccccc3Sc3ccc(C(F)(F)F)cc32)CC1` [(E/Z)-Flupentixol Dihydrochloride], 4.85%.
For the compound `CC(=O)[C@@]1(O)CC[C@H]2[C@@H]3C=C(Cl)C4=CC(=O)[C@@H]5C[C@@H]5[C@]4(C)[C@H]3CC[C@@]21C` [cyproterone], the “motility inhibition on day 3” value was under 0%.
With `Nc1[nH]cnc2ncnc1-2` [adenine], the “motility inhibition on day 3” value is under 0%.
For the compound `CC[N+](C)(C)c1cccc(O)c1` [edrophonium chloride], the “motility inhibition on day 3” value was 9.6%.
Consider `NCCc1c[nH]cn1` [Histamine dihydrochloride], for which the “motility inhibition on day 3” value was determined as 8.42%.
Take `OC(Cn1cncn1)(Cn1cncn1)c1ccc(F)cc1F` [fluconazole]: the “motility inhibition on day 3” value is under 0%.
On to `CCCOc1cc(N)ccc1C(=O)OCCN(CC)CC` [propoxycaine hydrochloride], for which the “motility inhibition on day 3” value is under 0%.
Turning to `CC(=O)OCC(=O)[C@@]1(O)CC[C@H]2[C@@H]3CCC4=CC(=O)CC[C@]4(C)[C@H]3[C@@H](O)C[C@@]21C` [hydrocortisone acetate], the “motility inhibition on day 3” value turned out to be 28.5%.
Turning to `Cc1ncc(C[n+]2csc(CCO)c2C)c(N)n1` [thiamine], the “motility inhibition on day 3” value was 16.5%.
Turning to `CC(C)c1c(C(=O)Nc2ccccc2)c(-c2ccccc2)c(-c2ccc(F)cc2)n1CC[C@@H](O)C[C@@H](O)CC(=O)O` [atorvastatin calcium], the “motility inhibition on day 3” value stood at 13.6%.
In the case of `CCN[C@H]1CN(CCCOC)S(=O)(=O)c2sc(S(N)(=O)=O)cc21` [brinzolamide] it was 15%; in that of `NS(=O)(=O)c1cc(C2(O)NC(=O)c3ccccc32)ccc1Cl` (centres undefined) [chlorthalidone], 8.44%.
For `CCCCCCCCCCCCCCCC(=O)OC/C=C(C)/C=C/C=C(C)/C=C/C1=C(C)CCCC1(C)C` [retinyl palmitate] the value was 1.99%.

For the origin of these results see the supplement of paper PMC7830784.
